These are yes or no findings as the source states them, for the method shown. In cells and extracts the contact can be indirect. Binding can be weak; no strength is given. For some assays here: Tags and fused reporters may be left off the sequences shown.
Columns and labels:
[1] = target: T1, FLAG-TRIP6, full length (WT) (human) (UniProt Q15654); experiment: co-IP
T1 sequence: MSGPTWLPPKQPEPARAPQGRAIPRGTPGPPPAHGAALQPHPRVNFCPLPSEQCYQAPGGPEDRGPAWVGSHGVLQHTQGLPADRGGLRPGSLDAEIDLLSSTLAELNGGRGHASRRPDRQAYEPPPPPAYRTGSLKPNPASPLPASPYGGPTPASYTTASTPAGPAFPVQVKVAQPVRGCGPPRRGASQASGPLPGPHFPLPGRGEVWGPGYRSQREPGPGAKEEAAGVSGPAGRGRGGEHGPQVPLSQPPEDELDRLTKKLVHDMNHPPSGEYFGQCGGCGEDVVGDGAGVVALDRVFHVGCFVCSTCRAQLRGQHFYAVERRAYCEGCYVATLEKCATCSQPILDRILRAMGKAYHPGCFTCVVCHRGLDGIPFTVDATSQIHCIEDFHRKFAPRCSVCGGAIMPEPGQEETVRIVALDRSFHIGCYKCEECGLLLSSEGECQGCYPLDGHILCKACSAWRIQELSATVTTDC

[2] = target: T2, TRIP6, endogenous (human (endogenous in MCF10A)) (UniProt Q15654); experiment: co-IP
T2 sequence: T1 sequence

Substance | binding [1] | binding [2]
N-terminal region of LATS2 (LATS2-GFP deletion mutant) (domain or fragment) | binds | –
vinculin, endogenous (from UniProt P18206-2) | – | binds
